Reference: article PMC11088181
No constants are given. Whether binding was seen depends on the method and setting. Some entries that bind do so weakly or less than the wild type.

The chains behind the UniProt entries cited, without tags or fusion partners. Residues count along the entry.
Aβ1-42 (P05067, residues 672-713): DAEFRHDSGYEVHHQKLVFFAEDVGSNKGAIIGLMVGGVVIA
Aβ1-40 (P05067, residues 672-711): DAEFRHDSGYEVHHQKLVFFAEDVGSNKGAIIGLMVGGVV

Key:
Aβ1-40 = Aβ1-40 (UniProt P05067); assay: ELISA; plates coated with 4 ng/μL Aβ peptide for 16 h at 4 °C, blocked with 5% BSA; recombinant cystatin F dimer added for 3 h at 18.75-300 ng/mL; detected with cystatin F antibody, absorbance at 450 nm; both purified
Aβ1-42 = Aβ1-42 (UniProt P05067); assay: as above
[1] = biological target: cystatin F in human plasma (human (endogenous in plasma)) (UniProt O76096); assay: condition: only with DTT (loading buffer with 20% DTT, boiled at 95 °C for 10 min); native gel or EMSA; same gel and western blot, loading buffer with 20% DTT, samples boiled at 95 °C for 10 min

Row | Binder | binding (Aβ1-40) | binding (Aβ1-42) | binding [1]
1 | recombinant cystatin F dimer protein (protein, UniProt O76096 20-145) GPSPDTCSQDLNSRVKPGFPKTIKTNDPGVLQAARYSVEKFNNCTNDMFLFKESRITRALVQIVKGLKYMLEVEIGRTTCKKNQHLRLDDCDFQTNHTLKQTLSCYSEVWVVPWLQHFEVPVLRCH | binds | binds | –
2 | cystatin F in human plasma (protein, UniProt O76096 20-145) GPSPDTCSQDLNSRVKPGFPKTIKTNDPGVLQAARYSVEKFNNCTNDMFLFKESRITRALVQIVKGLKYMLEVEIGRTTCKKNQHLRLDDCDFQTNHTLKQTLSCYSEVWVVPWLQHFEVPVLRCH | – | – | no binding
